Reference: US20250340649A1 (RUTGERS THE STATE UNIVERSITY OF NEW JERSEY, published 2025)
These are yes or no findings as the source states them, for the method shown. Some binding calls cover weakened binding; strength is not graded here.

Sequences of proteins named here, by UniProt entry; tags and fusion partners are left off. A change or cut given only in a name is not applied to a line headed by its entry. A line that says so, or that is headed by a name, gives the form on record, which may keep a tag or linker.
Biotinylated Human Fc gamma RIIIB/CD16b (NA1) Protein, His, Avitag (Acrobiosystems CDB-H82E4) (O75015, form named): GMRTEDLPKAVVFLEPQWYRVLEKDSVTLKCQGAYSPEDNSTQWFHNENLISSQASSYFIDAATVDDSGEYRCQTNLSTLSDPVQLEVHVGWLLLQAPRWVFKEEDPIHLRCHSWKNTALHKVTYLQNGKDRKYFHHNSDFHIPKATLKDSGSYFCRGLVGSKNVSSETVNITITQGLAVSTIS

Target: Biotinylated Human Fc gamma RIIIB/CD16b (NA1) Protein, His, Avitag (Acrobiosystems CDB-H82E4) (human) (UniProt O75015)
Test: BLI (Octet), biotinylated antigen on streptavidin sensor

binding: binds
B1: E5C1 BiKE (BiKE: HER2/CD16a) (bispecific antibody)
chain: QVQLQESGGGLVQAGGSLRLDCAASGRTLSSYVVGWFRQAPGKEREVVAAIGWSRTSTFYTDSVKGRFTISRDNTENTVYLQMNSLKPGDTAVYYCAADSSPRRWDRESDFGSWGQGTQVTVSSPSGQAGAAASESLFVSNHASQVQLQESGGGLVQAGGSLRLSCAASGRTFRLYRMGWFRQAPGKEREFVGSIKMIDGSTLYGDPVKGRFTISRDNTKFMAYLQMNSLKPEDTAVYYCASVSRVTGSYDSWGQGTQVTVSSWELQGSEQKLISEEDLHHHHHHHHHHHH
notes: Monomer by LC-MS; also called BIKE: CD16a/HER2
